Results are given in words; binding and its absence hold for the method and conditions named. Binding seen in cells or lysates may run through a third protein. Some binding calls cover weakened binding; strength is not graded here.
Molecular target: T1, CCCTC-Binding Factor (CTCF) (human (endogenous in HeLa)) (UniProt P49711)
T1 sequence: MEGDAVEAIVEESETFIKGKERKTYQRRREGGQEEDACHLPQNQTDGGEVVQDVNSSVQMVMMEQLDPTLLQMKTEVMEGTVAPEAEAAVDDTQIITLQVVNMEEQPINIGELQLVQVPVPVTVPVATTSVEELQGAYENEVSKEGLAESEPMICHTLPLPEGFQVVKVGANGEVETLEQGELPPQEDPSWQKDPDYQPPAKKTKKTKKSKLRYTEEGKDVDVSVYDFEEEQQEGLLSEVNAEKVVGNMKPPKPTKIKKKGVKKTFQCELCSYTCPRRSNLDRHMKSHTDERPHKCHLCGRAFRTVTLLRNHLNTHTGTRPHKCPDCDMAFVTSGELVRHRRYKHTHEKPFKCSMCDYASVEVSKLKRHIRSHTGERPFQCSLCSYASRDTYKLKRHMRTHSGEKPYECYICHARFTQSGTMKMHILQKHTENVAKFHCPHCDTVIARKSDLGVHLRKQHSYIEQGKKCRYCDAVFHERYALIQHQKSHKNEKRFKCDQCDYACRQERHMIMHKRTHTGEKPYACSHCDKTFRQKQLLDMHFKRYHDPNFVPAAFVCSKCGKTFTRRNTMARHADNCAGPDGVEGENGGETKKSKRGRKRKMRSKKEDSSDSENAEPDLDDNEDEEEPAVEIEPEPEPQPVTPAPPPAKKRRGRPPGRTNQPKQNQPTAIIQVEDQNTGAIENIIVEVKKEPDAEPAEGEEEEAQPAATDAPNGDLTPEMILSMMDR
Experiment: co-IP; HeLa extract in IP lysis buffer (50 mM Tris-HCl pH 8.0, 150 mM NaCl, 1% NP40); IP with 2 ug anti-CTCF (sc-5916) or beads without antibody, Protein A/G magnetic beads, 4°C about 16 h; five washes; Western blot for CTCF and KDM4A

B1: lysine (K)-specific demethylase 4A (KDM4A) (enzyme, UniProt O75164 1-1064)
chain: MASESETLNPSARIMTFYPTMEEFRNFSRYIAYIESQGAHRAGLAKVVPPKEWKPRASYDDIDDLVIPAPIQQLVTGQSGLFTQYNIQKKAMTVREFRKIANSDKYCTPRYSEFEELERKYWKNLTFNPPIYGADVNGTLYEKHVDEWNIGRLRTILDLVEKESGITIEGVNTPYLYFGMWKTSFAWHTEDMDLYSINYLHFGEPKSWYSVPPEHGKRLERLAKGFFPGSAQSCEAFLRHKMTLISPLMLKKYGIPFDKVTQEAGEFMITFPYGYHAGFNHGFNCAESTNFATRRWIEYGKQAVLCSCRKDMVKISMDVFVRKFQPERYKLWKAGKDNTVIDHTLPTPEAAEFLKESELPPRAGNEEECPEEDMEGVEDGEEGDLKTSLAKHRIGTKRHRVCLEIPQEVSQSELFPKEDLSSEQYEMTECPAALAPVRPTHSSVRQVEDGLTFPDYSDSTEVKFEELKNVKLEEEDEEEEQAAAALDLSVNPASVGGRLVFSGSKKKSSSSLGSGSSRDSISSDSETSEPLSCRAQGQTGVLTVHSYAKGDGRVTVGEPCTRKKGSAARSFSERELAEVADEYMFSLEENKKSKGRRQPLSKLPRHHPLVLQECVSDDETSEQLTPEEEAEETEAWAKPLSQLWQNRPPNFEAEKEFNETMAQQAPHCAVCMIFQTYHQVEFGGFNQNCGNASDLAPQKQRTKPLIPEMCFTSTGCSTDINLSTPYLEEDGTSILVSCKKCSVRVHASCYGVPPAKASEDWMCSRCSANALEEDCCLCSLRGGALQRANDDRWVHVSCAVAILEARFVNIAERSPVDVSKIPLPRFKLKCIFCKKRRKRTAGCCVQCSHGRCPTAFHVSCAQAAGVMMQPDDWPFVVFITCFRHKIPNLERAKGALQSITAGQKVISKHKNGRFYQCEVVRLTTETFYEVNFDDGSFSDNLYPEDIVSQDCLQFGPPAEGEVVQVRWTDGQVYGAKFVASHPIQMYQVEFEDGSQLVVKRDDVYTLDEELPKRVKSRLSVASDMRFNEIFTEKEVKQEKKRQRVINSRYREDYIEPALYRAIME
For B1, the binding was “binds”.

Source: article PMC5908303
